## Screening data

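Native S16 rat Schwann cells given compound for 24 h, with viability read as cellular ATP luminescence (CellTiter-Glo). Each compound ran as a dilution series from about 0.00016 to 58 µM. The number is the fitted AC50 potency for cell killing; a lower value means a more potent cytotoxic effect. Calls follow curve class, fit quality (r2) and response size; inconclusive compounds get activity scores of 1 to 39, and these rows are all inconclusive.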

Values are in nM. Every entry below has the call inconclusive. These entries are mostly ones the record files as inconclusive; other results of the assay are not listed here. Potencies fitted to partial, single-point or poorly fitting curves are rough. Some entries filed as inconclusive have a full curve. The first word of each remark tells which way the curve ran; it can be opposite to the aim of the assay. Activity scores are not listed here.

SMILES,Potency (nM),curve as filed
CNc1ccc(C(=O)CC(O)CCC(C)C2OC(=O)CC(O)CC(=O)CC(O)CC(O)CC(O)CC(O)CC3(O)CC(O)C(C(=O)OC)C(CC(O[C@@H]4OC(C)C(O)C(N)C4O)/C=C/C=C/C=C/C=C/C=C/C=C/C=C/C2C)O3)cc1 (some centres unmarked),32196,"cytotoxic, partial curve"
CCC(C(=O)O)C1OC(C(C)C(O)C(C)C(=O)C(CC)C2OC3(C=CC(O)C4(CCC(C)(C5CCC(O)(CC)C(C)O5)O4)O3)C(C)CC2C)C(C)CC1C (centres unmarked),907.4,"cytotoxic, full curve, poor fit"
CN1C[C@H](C(=O)N[C@]2(C)O[C@@]3(O)[C@@H]4CCCN4C(=O)[C@H](Cc4ccccc4)N3C2=O)C[C@@H]2c3cccc4[nH]cc(c34)C[C@H]21,36125,"cytotoxic, single point"
CCN(CC)CCCC(C)Nc1cc(/C=C/c2ccccc2Cl)nc2cc(Cl)ccc12 (centres unmarked),40533,"cytotoxic, single point"
c1ccc2c(c1)Sc1ccccc1N2CCN1CCCC1,16136,"cytotoxic, partial curve, poor fit"
O=C(Nc1ccc([N+](=O)[O-])cc1Cl)c1cc(Cl)ccc1O,2279,"cytotoxic, full curve"
CN1CCCC(CN2c3ccccc3Sc3ccccc32)C1 (centres unmarked),40533,"cytotoxic, partial curve, poor fit"
C[C@@H]1CC[C@H]2[C@@H](C)C(=O)O[C@@H]3OC4(C)CC[C@@H]1C32OO4 (some centres unmarked),45479,"cytotoxic, partial curve, poor fit"
Cc1c(C(=O)O)c(O)cc2c1C(=O)c1c(O)c([C@H]3O[C@H](CO)[C@@H](O)[C@H](O)[C@H]3O)c(O)c(O)c1C2=O,36125,"cytotoxic, single point"
Cc1cc(O)c2c(c1)OC1(C)CCC3C(C)(C)CCCC34COC2C14 (centres unmarked),40533,"cytotoxic, single point"
O=[N+]([O-])c1ccc(O)c2ncccc12,14381,"cytotoxic, full curve"
O=C(O)c1ccccc1Nc1cccc(C(F)(F)F)c1,2558,"cytotoxic, partial curve, poor fit"
O=C(NC(=O)c1c(F)cccc1F)Nc1cc(Cl)c(OC(F)(F)C(F)C(F)(F)F)cc1Cl (centres unmarked),28695,"cytotoxic, partial curve, poor fit"
O=c1[nH]c2ccccc2n1CCCN1CCC(n2c(=O)[nH]c3cc(Cl)ccc32)CC1,25574,"cytotoxic, partial curve"
CN(Cc1cc(Br)cc(Br)c1N)C1CCCCC1,36125,"cytotoxic, single point"
COc1ccc2cc1Oc1ccc(cc1)CC1c3c(cc4c(c3Oc3cc5c(cc3OC)CCN(C)C5C2)OCO4)CCN1C (centres unmarked),16136,"cytotoxic, partial curve"
CC(=O)Oc1cc(C)c(OC(C)=O)c2ccccc12,36125,"cytotoxic, single point"
CCOC(=O)C1=C(COCCN)NC(C)=C(C(=O)OC)C1c1ccccc1Cl (centres unmarked),40533,"cytotoxic, single point"
C[C@]12CC[C@H]3[C@@H](CC=C4C[C@@H](O)CC[C@@]43C)[C@@H]1CC[C@@H]2O,25574,"cytotoxic, partial curve"
C[C@]12CCC(=O)C(O)=C1CC[C@@H]1[C@H]3CCC(=O)[C@@]3(C)CC[C@@H]12,40533,"cytotoxic, partial curve, poor fit"
C[C@]12CC[C@H](O)C[C@H]1CCC1C2CC[C@]2(C)[C@@H](c3ccc(=O)oc3)C[C@H]3O[C@]132 (some centres unmarked),36125,"cytotoxic, partial curve, poor fit"
CCOC(=O)C1=CC(OC(CC)CC)C(NC(C)=O)C(N)C1 (centres unmarked),9074,"cytotoxic, single point"
Oc1c(Cl)cc(Cl)cc1Sc1cc(Cl)cc(Cl)c1O,36125,"cytotoxic, single point"
C[C@@H](C(=O)O)c1ccc(C(=O)c2cccs2)cc1,17359,"rising, partial curve, poor fit"
c1ccc2c(c1)OCC(CN1CCCCC1)O2 (centres unmarked),2,"cytotoxic, full curve, poor fit"
CN1C[C@H](CNC(=O)OCc2ccccc2)C[C@@H]2c3cccc4c3c(cn4C)C[C@H]21,45479,"cytotoxic, partial curve, poor fit"
COC(=O)C1=C(C)NC(C)=C(C(=O)OC(C)(C)CN(C)CCC(c2ccccc2)c2ccccc2)C1c1cccc([N+](=O)[O-])c1 (centres unmarked),36125,"cytotoxic, single point"
OCCOc1ccccc1,80.9,"cytotoxic, full curve, poor fit"
Cc1ccc(O)c2ncccc12,22793,"cytotoxic, partial curve, poor fit"
OC(CN1CCC(Cc2ccc(F)cc2)CC1)c1ccc(Cl)cc1 (centres unmarked),25574,"cytotoxic, partial curve, poor fit"
CCC(C)(S(=O)(=O)CC)S(=O)(=O)CC,72.1,"cytotoxic, full curve, poor fit"
CCOc1cc(-c2nccc3cc(OC)c(OC)cc23)cc(OCC)c1OCC,25574,"cytotoxic, partial curve"
CC(C)OC(=O)Nc1ccc2nc(-c3cscn3)[nH]c2c1,40533,"cytotoxic, single point"
C=C1CC[C@H](O)C/C1=C/C=C1\CCC[C@]2(C)[C@@H]([C@H](C)CCCC(C)(C)O)CC[C@@H]12,36125,"cytotoxic, single point"
O=Cc1ccccc1C=O,5103,"cytotoxic, partial curve, poor fit"
C=CCN1C[C@H](C)N([C@H](c2ccc(C(=O)N(CC)CC)cc2)c2cccc(OC)c2)C[C@H]1C,2.6,"cytotoxic, full curve, poor fit"

The last 3 entries again:

{"smiles": "C=C1CC[C@H](O)C/C1=C/C=C1\\CCC[C@]2(C)[C@@H]([C@H](C)CCCC(C)(C)O)CC[C@@H]12", "Potency (nM)": "36125", "curve as filed": "cytotoxic, single point"}
{"smiles": "O=Cc1ccccc1C=O", "Potency (nM)": "5103", "curve as filed": "cytotoxic, partial curve, poor fit"}
{"smiles": "C=CCN1C[C@H](C)N([C@H](c2ccc(C(=O)N(CC)CC)cc2)c2cccc(OC)c2)C[C@H]1C", "Potency (nM)": "2.6", "curve as filed": "cytotoxic, full curve, poor fit"}

Source: PubChem BioAssay AID624031 (NCATS, 2012).